# Experimental data reported in the supplement of paper PMC8728848.
# The list shows a part of the results.
# B1: Clone646PsrP (Streptococcus pneumoniae) (protein)
# chain: MDHHHHHHHHASENLYFQGAPAINASLNIAKSETKVYTGEGVDSVYRVPIYYKLKVTNDGSKLTFTYTVTYVNPKTNDLGNISSMRPGYSIYNSGTSTQTMLTLGSDLGKPSGVKNYITDKNGRQVLSYNTSTMTTQGSGYTWGNGAQMNGFFAKKGYGLTSSWTVPITGTDTSFTFTPYAARTDRIGINYFNGGGKVVESSTTSQSLSQSKSLSVSAS
# Assays:
# Test in all cases: glycan array binding signal (z-score within array); higher = stronger binding
# Details in all cases: glycan notation: IUPAC condensed, linker removed
# [1] = target: GlcNAc(b1-2)Gal(b1-3)GalNAc
# Summary of the method: (§1)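 The binding signal is a Z-score computed within each array and averaged over linkers. Arrays of the same protein sequence at different concentrations or buffers were also averaged together. Data originate from 3228 arrays in the Consortium for Functional Glycomics database, kept only where the protein sequence was available.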
# [2] = target: GlcNAc(b1-2)Man(a1-3)[GlcNAc(b1-2)Man(a1-6)]Man(b1-4)GlcNAc(b1-4)GlcNAc
# Summary of the method: as §1
# [3] = target: GlcNAc(b1-2)Man(a1-3)[GlcNAc(b1-2)Man(a1-6)]Man(b1-4)GlcNAc(b1-4)[Fuc(a1-6)]GlcNAc
# Summary of the method: as §1
# [4] = target: GlcNAc(b1-2)Man(a1-3)[GlcNAc(b1-4)][GlcNAc(b1-2)Man(a1-6)]Man(b1-4)GlcNAc(b1-4)GlcNAc
# Summary of the method: as §1
# [5] = target: GlcNAc(b1-2)Man(a1-3)[GlcNAc(b1-4)][GlcNAc(b1-2)Man(a1-6)]Man(b1-4)GlcNAc(b1-4)[Fuc(a1-6)]GlcNAc
# Summary of the method: as §1
# [6] = target: GlcNAc(b1-2)[GlcNAc(b1-4)]Man(a1-3)[GlcNAc(b1-2)Man(a1-6)]Man(b1-4)GlcNAc(b1-4)GlcNAc
# Summary of the method: as §1
# [7] = target: GlcNAc(b1-2)[GlcNAc(b1-4)]Man(a1-3)[GlcNAc(b1-4)][GlcNAc(b1-2)Man(a1-6)]Man(b1-4)GlcNAc(b1-4)GlcNAc
# Summary of the method: as §1
# [8] = target: GlcNAc(b1-2)[GlcNAc(b1-4)]Man(a1-3)[GlcNAc(b1-4)][GlcNAc(b1-2)[GlcNAc(b1-6)]Man(a1-6)]Man(b1-4)GlcNAc(b1-4)GlcNAc
# Summary of the method: as §1
# [9] = target: GlcNAc(b1-2)[GlcNAc(b1-4)]Man(a1-3)[GlcNAc(b1-4)][GlcNAc(b1-2)[GlcNAc(b1-6)]Man(a1-6)]Man(b1-4)GlcNAc(b1-4)[Fuc(a1-6)]GlcNAc
# Summary of the method: as §1
# [10] = target: GlcNAc(b1-2)[GlcNAc(b1-6)]Man(a1-6)[GlcNAc(b1-2)Man(a1-3)]Man(b1-4)GlcNAc(b1-4)GlcNAc
# Summary of the method: as §1
# [11] = target: GlcNAc(b1-2)[GlcNAc(b1-6)]Man(a1-6)[GlcNAc(b1-2)Man(a1-3)]Man(b1-4)GlcNAc(b1-4)[Fuc(a1-6)]GlcNAc
# Summary of the method: as §1
# [12] = target: GlcNAc(b1-2)[GlcNAc(b1-6)]Man(a1-6)[GlcNAc(b1-4)][GlcNAc(b1-2)Man(a1-3)]Man(b1-4)GlcNAc(b1-4)GlcNAc
# Summary of the method: as §1
# GlcNAc(b1-3)Fuc = target: GlcNAc(b1-3)Fuc
# Summary of the method: as §1
# GlcNAc(b1-3)Gal = target: GlcNAc(b1-3)Gal
# Summary of the method: as §1
# [13] = target: GlcNAc(b1-3)Gal(b1-3)GalNAc
# Summary of the method: as §1
# GlcNAc(b1-3)Gal(b1-4)Glc = target: GlcNAc(b1-3)Gal(b1-4)Glc
# Summary of the method: as §1
# [14] = target: GlcNAc(b1-3)Gal(b1-4)GlcNAc
# Summary of the method: as §1
# [15] = target: GlcNAc(b1-3)Gal(b1-4)GlcNAc(b1-2)Man(a1-3)[GlcNAc(b1-3)Gal(b1-4)GlcNAc(b1-2)Man(a1-6)]Man(b1-4)GlcNAc(b1-4)GlcNAc
# Summary of the method: as §1
# [16] = target: GlcNAc(b1-3)Gal(b1-4)GlcNAc(b1-2)Man(a1-3)[GlcNAc(b1-3)Gal(b1-4)GlcNAc(b1-2)Man(a1-6)]Man(b1-4)GlcNAc(b1-4)[Fuc(a1-6)]GlcNAc
# Summary of the method: as §1
# [17] = target: GlcNAc(b1-3)Gal(b1-4)GlcNAc(b1-2)[GlcNAc(b1-3)Gal(b1-4)GlcNAc(b1-6)]Man(a1-6)[GlcNAc(b1-3)Gal(b1-4)GlcNAc(b1-2)Man(a1-3)]Man(b1-4)GlcNAc(b1-4)GlcNAc
# Summary of the method: as §1
# [18] = target: GlcNAc(b1-3)Gal(b1-4)GlcNAc(b1-3)Gal(b1-4)GlcNAc
# Summary of the method: as §1
# [19] = target: GlcNAc(b1-3)Gal(b1-4)GlcNAc(b1-3)Gal(b1-4)GlcNAc(b1-2)Man(a1-3)[GlcNAc(b1-3)Gal(b1-4)GlcNAc(b1-3)Gal(b1-4)GlcNAc(b1-2)Man(a1-6)]Man(b1-4)GlcNAc(b1-4)GlcNAc
# Summary of the method: as §1
# [20] = target: GlcNAc(b1-3)Gal(b1-4)GlcNAc(b1-3)Gal(b1-4)GlcNAc(b1-2)Man(a1-3)[GlcNAc(b1-3)Gal(b1-4)GlcNAc(b1-3)Gal(b1-4)GlcNAc(b1-2)Man(a1-6)]Man(b1-4)GlcNAc(b1-4)[Fuc(a1-6)]GlcNAc
# Summary of the method: as §1
# [21] = target: GlcNAc(b1-3)Gal(b1-4)GlcNAc(b1-3)Gal(b1-4)GlcNAc(b1-2)[GlcNAc(b1-3)Gal(b1-4)GlcNAc(b1-3)Gal(b1-4)GlcNAc(b1-6)]Man(a1-6)[GlcNAc(b1-3)Gal(b1-4)GlcNAc(b1-3)Gal(b1-4)GlcNAc(b1-2)Man(a1-3)]Man(b1-4)GlcNAc(b1-4)[Fuc(a1-6)]GlcNAc
# Summary of the method: as §1
# [22] = target: GlcNAc(b1-3)Gal(b1-4)GlcNAc(b1-3)Gal(b1-4)GlcNAc(b1-3)Gal(b1-4)GlcNAc(b1-2)Man(a1-3)[GlcNAc(b1-3)Gal(b1-4)GlcNAc(b1-3)Gal(b1-4)GlcNAc(b1-3)Gal(b1-4)GlcNAc(b1-2)Man(a1-6)]Man(b1-4)GlcNAc(b1-4)GlcNAc
# Summary of the method: as §1
# [23] = target: GlcNAc(b1-3)Gal(b1-4)GlcNAc(b1-3)Gal(b1-4)GlcNAc(b1-3)Gal(b1-4)GlcNAc(b1-2)Man(a1-3)[GlcNAc(b1-3)Gal(b1-4)GlcNAc(b1-3)Gal(b1-4)GlcNAc(b1-3)Gal(b1-4)GlcNAc(b1-2)Man(a1-6)]Man(b1-4)GlcNAc(b1-4)[Fuc(a1-6)]GlcNAc
# Summary of the method: as §1
# [24] = target: GlcNAc(b1-3)Gal(b1-4)GlcNAc(b1-3)Gal(b1-4)GlcNAc(b1-3)Gal(b1-4)GlcNAc(b1-2)[GlcNAc(b1-3)Gal(b1-4)GlcNAc(b1-3)Gal(b1-4)GlcNAc(b1-3)Gal(b1-4)GlcNAc(b1-6)]Man(a1-6)[GlcNAc(b1-3)Gal(b1-4)GlcNAc(b1-3)Gal(b1-4)GlcNAc(b1-3)Gal(b1-4)GlcNAc(b1-2)Man(a1-3)]Man(b1-4)GlcNAc(b1-4)[Fuc(a1-6)]GlcNAc
# Summary of the method: as §1
# [25] = target: GlcNAc(b1-3)Gal(b1-4)GlcNAc(b1-3)Gal(b1-4)GlcNAc(b1-3)Gal(b1-4)GlcNAc(b1-3)Gal(b1-4)GlcNAc(b1-2)Man(a1-3)[GlcNAc(b1-3)Gal(b1-4)GlcNAc(b1-3)Gal(b1-4)GlcNAc(b1-3)Gal(b1-4)GlcNAc(b1-3)Gal(b1-4)GlcNAc(b1-2)Man(a1-6)]Man(b1-4)GlcNAc(b1-4)GlcNAc
# Summary of the method: as §1
# [26] = target: GlcNAc(b1-3)Gal(b1-4)GlcNAc(b1-3)Gal(b1-4)GlcNAc(b1-3)Gal(b1-4)GlcNAc(b1-3)Gal(b1-4)GlcNAc(b1-2)Man(a1-3)[GlcNAc(b1-3)Gal(b1-4)GlcNAc(b1-3)Gal(b1-4)GlcNAc(b1-3)Gal(b1-4)GlcNAc(b1-3)Gal(b1-4)GlcNAc(b1-2)Man(a1-6)]Man(b1-4)GlcNAc(b1-4)[Fuc(a1-6)]GlcNAc
# Summary of the method: as §1
# [27] = target: GlcNAc(b1-3)Gal(b1-4)GlcNAc(b1-3)Gal(b1-4)GlcNAc(b1-3)Gal(b1-4)GlcNAc(b1-3)Gal(b1-4)GlcNAc(b1-2)[GlcNAc(b1-3)Gal(b1-4)GlcNAc(b1-3)Gal(b1-4)GlcNAc(b1-3)Gal(b1-4)GlcNAc(b1-3)Gal(b1-4)GlcNAc(b1-6)]Man(a1-6)[GlcNAc(b1-3)Gal(b1-4)GlcNAc(b1-3)Gal(b1-4)GlcNAc(b1-3)Gal(b1-4)GlcNAc(b1-3)Gal(b1-4)GlcNAc(b1-2)Man(a1-3)]Man(b1-4)GlcNAc(b1-4)[Fuc(a1-6)]GlcNAc
# Summary of the method: as §1
# [28] = target: GlcNAc(b1-3)Gal(b1-4)GlcNAc(b1-3)Gal(b1-4)GlcNAc(b1-3)GalNAc
# Summary of the method: as §1
# [29] = target: GlcNAc(b1-3)Gal(b1-4)GlcNAc(b1-3)GalNAc
# Summary of the method: as §1
# [30] = target: GlcNAc(b1-3)Gal(b1-4)GlcNAc(b1-3)[GlcNAc(b1-3)Gal(b1-4)GlcNAc(b1-3)]GalNAc
# Summary of the method: as §1
# [31] = target: GlcNAc(b1-3)Gal(b1-4)GlcNAc(b1-6)[Gal(b1-3)]GalNAc
# Summary of the method: as §1
# [32] = target: GlcNAc(b1-3)Gal(b1-4)GlcNAc(b1-6)[GlcNAc(b1-3)Gal(b1-3)]GalNAc
# Summary of the method: as §1
# [33] = target: GlcNAc(b1-3)Gal(b1-4)GlcNAc(b1-6)[GlcNAc(b1-3)]Gal(b1-4)GlcNAc
# Summary of the method: as §1
# GlcNAc(b1-3)GalNAc = target: GlcNAc(b1-3)GalNAc
# Summary of the method: as §1
# GlcNAc(b1-3)Man = target: GlcNAc(b1-3)Man
# Summary of the method: as §1
# [34] = target: GlcNAc(b1-3)[GlcNAc(b1-4)][GlcNAc(b1-6)]GlcNAc
# Summary of the method: as §1
# [35] = target: GlcNAc(b1-3)[GlcNAc(b1-6)]Gal(b1-4)GlcNAc
# Summary of the method: as §1
# [36] = target: GlcNAc(b1-3)[GlcNAc(b1-6)]GalNAc
# Summary of the method: as §1
# [37] = target: GlcNAc(b1-4)Gal(b1-4)GlcNAc
# Summary of the method: as §1
# GlcNAc(b1-4)GlcNAc = target: GlcNAc(b1-4)GlcNAc
# Summary of the method: as §1
# [38] = target: GlcNAc(b1-4)GlcNAc(b1-4)GlcNAc
# Summary of the method: as §1
# [39] = target: GlcNAc(b1-4)GlcNAc(b1-4)GlcNAc(b1-4)GlcNAc(b1-4)GlcNAc
# Summary of the method: as §1
binder,measurement,setting,value
B1,glycan array binding signal (z-score),[1],-0.013
same,glycan array binding signal (z-score),[2],-0.479
same,glycan array binding signal (z-score),[3],-0.521
same,glycan array binding signal (z-score),[4],0.057
same,glycan array binding signal (z-score),[5],-0.904
same,glycan array binding signal (z-score),[6],-0.607
same,glycan array binding signal (z-score),[7],-0.698
same,glycan array binding signal (z-score),[8],-0.425
same,glycan array binding signal (z-score),[9],-0.966
same,glycan array binding signal (z-score),[10],-0.558
same,glycan array binding signal (z-score),[11],-0.71
same,glycan array binding signal (z-score),[12],-0.976
same,glycan array binding signal (z-score),GlcNAc(b1-3)Fuc,-0.086
same,glycan array binding signal (z-score),GlcNAc(b1-3)Gal,-0.961
same,glycan array binding signal (z-score),[13],-0.179
same,glycan array binding signal (z-score),GlcNAc(b1-3)Gal(b1-4)Glc,-0.488
same,glycan array binding signal (z-score),[14],-0.583
same,glycan array binding signal (z-score),[15],-0.775
same,glycan array binding signal (z-score),[16],-0.329
same,glycan array binding signal (z-score),[17],-0.515
same,glycan array binding signal (z-score),[18],-0.626
same,glycan array binding signal (z-score),[19],0.124
same,glycan array binding signal (z-score),[20],-0.819
same,glycan array binding signal (z-score),[21],-0.864
same,glycan array binding signal (z-score),[22],-0.901
same,glycan array binding signal (z-score),[23],0.342
same,glycan array binding signal (z-score),[24],-0.924
same,glycan array binding signal (z-score),[25],-0.39
same,glycan array binding signal (z-score),[26],-0.863
same,glycan array binding signal (z-score),[27],-0.931
same,glycan array binding signal (z-score),[28],-0.876
same,glycan array binding signal (z-score),[29],-0.586
same,glycan array binding signal (z-score),[30],-0.686
same,glycan array binding signal (z-score),[31],-0.537
same,glycan array binding signal (z-score),[32],-0.627
same,glycan array binding signal (z-score),[33],-0.875
same,glycan array binding signal (z-score),GlcNAc(b1-3)GalNAc,0.429
same,glycan array binding signal (z-score),GlcNAc(b1-3)Man,2.55
same,glycan array binding signal (z-score),[34],0.396
same,glycan array binding signal (z-score),[35],-0.849
same,glycan array binding signal (z-score),[36],-0.132
same,glycan array binding signal (z-score),[37],0.742
same,glycan array binding signal (z-score),GlcNAc(b1-4)GlcNAc,0.726
same,glycan array binding signal (z-score),[38],0.715
same,glycan array binding signal (z-score),[39],0.251

# 2 consecutive records out of the list so far, quoted:
binder,measurement,setting,value
B1,glycan array binding signal (z-score),GlcNAc(b1-3)Gal(b1-4)Glc,-0.488
same,glycan array binding signal (z-score),[14],-0.583
